Measured values published in PubChem BioAssay AID504834 (National Center for Advancing Translational Sciences (NCATS), 2011).
About 22,000 (6.9%) of roughly 320,000 compounds were called active. The shares of active, inactive and inconclusive entries below differ from those in the screen. Calls follow the shape of the dose curve; as a rule, active = well fitted inhibition curve with a large enough effect; inconclusive = small, poorly fitted or top-dose-only effect, or another doubt; inactive = no such curve, though single readings can be large or run the other way. Potencies of inconclusive entries are doubtful fits and often do not repeat.

Test: Primary qHTS for delayed death inhibitors of the malarial parasite plastid, 96 hour incubation
Details: P. falciparum luciferase reporter growth; series mostly up to 28.7 µM
Method in brief: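 P. falciparum expressing integrated firefly luciferase, in erythrocytes at 2% hematocrit, 0.05% parasitemia, incubated with compounds 96 h at 37 C, 5% CO2. Growth inhibition read as loss of luminescence; two-generation exposure targets delayed-death apicoplast inhibitors.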
Potency is read from the fitted curve at half-maximal effect.

SMILES	Potency
Cc1ccccc1-n1c(=O)cc(N2CCN(Cc3ccccc3)CC2)[nH]c1=O	inactive
COc1ccc(C(=O)N(Cc2cccs2)C2CCS(=O)(=O)C2)cc1 (stereo not given)	inconclusive: 4.65 µM [inhibitor, partial curve]
O=c1c2ccccc2nc(SCc2ccccc2F)n1C1CCCC1	inactive
COc1cc(NC(=O)COc2ccccc2[N+](=O)[O-])ccc1NC(=O)c1ccco1	inactive
CCOC(=O)c1c(-c2ccc(C)cc2)csc1NC(=O)c1cc2ccccc2oc1=O	inconclusive: 0.0037 µM [inhibitor, full curve, poor fit]
COc1cc(-c2noc(C)c2C(=O)NCCO)cc(OC)c1OC	inactive
CC/C=C/CC(=O)N[C@@H](c1ccccc1)[C@@H](O)C(=O)O[C@H]1C[C@@]2(O)[C@@H](OC(=O)c3ccccc3)C3[C@](C)(C(=O)[C@H](OC(C)=O)C(=C1C)C2(C)C)[C@@H](O)C[C@H]1OC[C@@]31OC(C)=O (stereo not given in full)	active: 0.329 µM
C=CCn1c(O)c(N=NC(=S)Nc2cccc(OC)c2)c2ccccc21	inconclusive: 18.5 µM [inhibitor, single point]
CC(C)(c1ccccc1)c1ccc(OCCCNCCO)cc1	active: 2.08 µM
COc1ccc(CCNC(=O)CSc2nnc3ccc(-c4ccncc4)nn23)cc1	inconclusive: 5.22 µM [inhibitor, partial curve]
COc1cc(C(=O)Nc2sc3c(c2C#N)CCN(C(C)=O)C3)cc(OC)c1OC	inconclusive: 10.4 µM [inhibitor, partial curve]
CCOC(=O)N1CCC(Nc2c(NCCN3CCN(c4cccc(Cl)c4)CC3)c(=O)c2=O)CC1	inconclusive: 18.5 µM [inhibitor, single point]
CC(C)c1nc(SCC(=O)NCc2ccccc2)n[nH]1	inconclusive: 11.7 µM [inhibitor, partial curve, poor fit]
CC(C)c1ccc(C(O)P(=O)(OCc2ccccc2)c2ccc(N(C)C)cc2)cc1 (stereo not given)	inconclusive: 18.5 µM [inhibitor, single point]
COc1ccc(CNC(=O)CSc2nc3c(oc4ccccc43)c(=O)n2CC2CCCO2)cc1 (stereo not given)	inconclusive: 10.4 µM [inhibitor, single point]
Cc1cc(NC(=O)c2cc(-c3ccc(C)c(C)c3)nc3ccccc23)no1	active: 0.738 µM
CCC1CCCCN1C(=O)CCCOc1ccccc1 (stereo not given)	inactive
CCN(CC)N=Nc1ccc(S(=O)(=O)Nc2nc(C)cc(C)n2)cc1	inconclusive: 14.7 µM [inhibitor, single point]
Cc1ccccc1NC(=O)N(CCc1nc2ccccc2[nH]1)Cc1ccccc1	inconclusive: 16.5 µM [inhibitor, single point]
O=C(NCc1cccc(Cl)c1)c1ccc(CS(=O)Cc2ccc(Cl)cc2)o1 (stereo not given)	inactive
CCC(C(=O)NC(C)(C)C)N(Cc1ccc(F)cc1)C(=O)c1snc(C(N)=O)c1N (stereo not given)	inactive
COc1ccc(NC2CCCN(Cc3cccc4cnccc34)C2)cc1 (stereo not given)	inconclusive: 18.5 µM [inhibitor, single point]
CC1=NN(C(N)=S)C(=O)C1N=Nc1ccc(Cl)cc1 (stereo not given)	inconclusive: 18.5 µM [inhibitor, single point]
CC1(C)CC(NC(=O)c2cc([N+](=O)[O-])cc([N+](=O)[O-])c2)CC(C)(C)N1	inconclusive: 18.5 µM [inhibitor, single point]

SMILES	Potency
COc1ccc([C@@H]2CC=C(C(=O)O)[C@H](c3cccc(Cl)c3)N2S(=O)(=O)c2ccc(C)cc2)cc1OC	inconclusive: 18.5 µM [inhibitor, single point]
CCCCC(=O)Nc1nc(C)c(-c2csc(Nc3ccc(Cl)cc3)n2)s1	active: 3.29 µM
CC(C)(CNC(=O)c1cc2c(s1)CCCC2)N1CCOCC1	inactive
COc1cc(C(=O)N/N=C/c2ccc(OC)c(CN3CCN(c4ccc(F)cc4)CC3)c2)ccc1O	inactive
Cc1ccc(S(=O)(=O)NC(C)C(c2cccs2)N2CCN(C)CC2)cc1 (stereo not given)	active: 10.4 µM
CCOC(=O)N1CCC(NC(=O)CC2C(=O)NCCN2Cc2ccccc2F)CC1 (stereo not given)	inactive
CC1=C(C(=O)OCc2ccccc2)C(c2ccc(Cl)cc2Cl)NC(=O)N1CCCC(=O)O (stereo not given)	inconclusive: 18.5 µM [inhibitor, single point]
COc1ccc2c(c1)CCC/C2=N\Nc1nc(C(=O)NN)cs1	inconclusive: 8.28 µM [inhibitor, partial curve, poor fit]
COc1cc(/C=N/NC(=O)c2ccccc2NS(=O)(=O)c2cccs2)ccc1O	inconclusive: 9.28 µM [inhibitor, partial curve]
CCC(C)NC(=S)Nc1ccccc1 (stereo not given)	inconclusive: 11.7 µM [inhibitor, partial curve, poor fit]
CN1C(=O)CN2CCc3ccccc3C2c2cc(Cl)ccc21 (stereo not given)	inconclusive: 19 µM [inhibitor, partial curve, poor fit]
O=C1NC(=O)N(Cc2ccco2)C(=O)/C1=C/C=C/c1ccco1	inconclusive: 20.8 µM [inhibitor, single point]
CCc1cc2ccccc2nc1Cl	inactive
CCN(CC)c1ccc(C=C2C(=O)OC(c3ccccc3)OC2=O)cc1 (stereo not given)	inactive
CC1(C)NC(=O)N(CCOc2cccc(Oc3ccccc3)c2)C1=O	inconclusive: 9.28 µM [inhibitor, single point]
CCCNC(=O)CCc1c(C)nc2c(c(C)nn2-c2ccccc2)c1C	inconclusive: 18.5 µM [inhibitor, single point]
CCN1CCN(C(=O)c2cc(=O)c3cc(C)ccc3o2)CC1	inactive
CCCCc1nc2cc(C(=O)N3CCCCC3COC)ccc2o1 (stereo not given)	inconclusive: 18.5 µM [inhibitor, single point]
COc1ccc(C(=O)NCC(=O)NCC2COc3ccccc3O2)cc1 (stereo not given)	inactive
O=C(O)CNC(=S)N(Cc1ccccc1Cl)C1CCCCC1	inconclusive: 4.15 µM [inhibitor, single point]
CCCCOc1ccc(C(=O)N/C(=C\c2cccc([N+](=O)[O-])c2)C(=O)OC(C)C)cc1	active: 0.465 µM
Cc1cccc(OCC(=O)N/N=C/c2sc(=O)n(Cc3cccc(C(=O)O)c3)c2Cl)c1	inconclusive: 9.28 µM [inhibitor, partial curve, poor fit]
CCN(CC)Cc1c(C(=O)N2CCc3ccccc3C2)nc2ccc(Cl)cn12	inconclusive: 18.5 µM [inhibitor, single point]
CSc1ccccc1NC(=O)c1noc(C)c1[N+](=O)[O-]	inactive

SMILES	Potency
O=C(O)CN1C(=O)C2(OCCCO2)c2ccccc21	inconclusive: 0.586 µM [inhibitor, partial curve, poor fit]
CC(C)n1c(=S)[nH]c2cc(Cl)ccc21	inconclusive: 18.5 µM [inhibitor, single point]
CC(=O)N/C(=C\c1ccccc1)C(=O)OCC(=O)NC(C)C12CC3CC(CC(C3)C1)C2 (stereo not given)	inconclusive: 1.31 µM [inhibitor, partial curve]
O=c1[nH]c2ccccc2c(=O)n1CCCO	inactive
CC1(C)CC(=O)C2=C(C1)OC(N)=C(C#N)C2c1cccc(OC(=O)c2ccco2)c1 (stereo not given)	active: 2.94 µM
CC(C)(CNC(=O)c1ccc([N+](=O)[O-])c(Cl)c1)CNC(=O)c1ccc([N+](=O)[O-])c(Cl)c1	inconclusive: 2.08 µM [inhibitor, partial curve, poor fit]
O=C(OCC1CCNCC1)c1ccc2c(c1)OCO2	inconclusive: 4.15 µM [inhibitor, single point]
Fc1ccccc1Cn1cnc(NC(=S)NCCc2ccccc2)n1	inconclusive: 4.15 µM [inhibitor, single point]
COc1ccc(NC(=S)NCc2ccc(F)cc2)c(OC)c1	inconclusive: 16.5 µM [inhibitor, partial curve, poor fit]
CC(Oc1ccc2c3c(c(=O)oc2c1)CCC3)C(=O)NCC1CCC(C(=O)O)CC1 (stereo not given)	inactive
CCC(=O)Nc1ccc(NC(=O)c2cc3ccccc3o2)cc1	inconclusive: 13.1 µM [inhibitor, partial curve, poor fit]
CCOc1cc(CNC(CC)CO)ccc1OCC(=O)Nc1cccc(C(F)(F)F)c1 (stereo not given)	inconclusive: 14.7 µM [inhibitor, single point]
CCn1nc(C(=O)Nc2ccc(N3CCOCC3)cc2)c2ccccc2c1=O	inactive
CCOc1ccc(C(=O)CCC(=O)Nc2cc(C)ccn2)cc1	inconclusive: 18.5 µM [inhibitor, single point]
Cc1ccc(C(C)(C)NC(=O)C2CCC(=O)N(CCCN3CCOCC3)C2)cc1 (stereo not given)	inconclusive: 18.5 µM [inhibitor, single point]
CCc1ccc(OCC2c3cc(OC)c(OC)cc3CCN2C(C)=O)cc1 (stereo not given)	inactive
CC1CCCCC1NC(=O)CSc1nnc(-c2ccccc2)n1N (stereo not given)	inactive
Cc1ccnc(NC(=O)CCC(=O)N(CC(=O)NC2CCCCC2)c2ccc3c(c2)OCO3)c1	inactive
CC1COc2ccccc2N1S(=O)(=O)c1ccc(Cl)cc1 (stereo not given)	inconclusive: 18.5 µM [inhibitor, single point]
C[C@H](N)C(=O)N[C@@H](C)P(=O)(O)O	inactive
C=C1CCN([C@H](C(=O)NCc2ccc(Cl)cc2)C(C)C)S(=O)(=O)c2ccccc21	inconclusive: 18.5 µM [inhibitor, single point]
CC(C)(C)c1nnc(N/N=C/c2cc(Br)ccc2O)n(N)c1=O	active: 8.28 µM

A draw from above in order of length of the SMILES, rising:
SMILES	Potency
CCN(CC)Cc1c(C(=O)N2CCc3ccccc3C2)nc2ccc(Cl)cn12	inconclusive: 18.5 µM [inhibitor, single point]
COc1ccc(CNC(=O)CSc2nc3c(oc4ccccc43)c(=O)n2CC2CCCO2)cc1 (stereo not given)	inconclusive: 10.4 µM [inhibitor, single point]
CCCCOc1ccc(C(=O)N/C(=C\c2cccc([N+](=O)[O-])c2)C(=O)OC(C)C)cc1	active: 0.465 µM
CC(C)(CNC(=O)c1ccc([N+](=O)[O-])c(Cl)c1)CNC(=O)c1ccc([N+](=O)[O-])c(Cl)c1	inconclusive: 2.08 µM [inhibitor, partial curve, poor fit]
